In the assay the target is E2F1 (human (human NSCLC cell lines; the line of the Co-IP is not named)) (UniProt Q01094). In words: co-IP; 1.0 mg protein of cell lysate incubated with antibodies at 4°C overnight, then 20 μL beads at 4°C for 2 h, washed three times, SDS-PAGE and western blot; precipitating antibody and cell line not stated. Background: A western blot detects proteins with antibodies after separation by electrophoresis.

Amino acid sequences for entries named in this document (tags omitted).
UniProt Q01094: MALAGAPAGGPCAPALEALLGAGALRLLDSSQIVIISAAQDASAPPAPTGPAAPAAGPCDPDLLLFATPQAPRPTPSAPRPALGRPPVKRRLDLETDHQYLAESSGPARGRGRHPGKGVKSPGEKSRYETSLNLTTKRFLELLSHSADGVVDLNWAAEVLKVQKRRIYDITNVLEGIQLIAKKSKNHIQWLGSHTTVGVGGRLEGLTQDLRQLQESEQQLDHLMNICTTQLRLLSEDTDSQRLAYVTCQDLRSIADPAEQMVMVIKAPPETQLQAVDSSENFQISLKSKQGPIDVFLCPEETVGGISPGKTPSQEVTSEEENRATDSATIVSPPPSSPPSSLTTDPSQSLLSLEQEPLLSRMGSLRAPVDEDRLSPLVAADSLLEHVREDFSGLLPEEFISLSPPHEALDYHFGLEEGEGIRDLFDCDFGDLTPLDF
UniProt Q9NVX2: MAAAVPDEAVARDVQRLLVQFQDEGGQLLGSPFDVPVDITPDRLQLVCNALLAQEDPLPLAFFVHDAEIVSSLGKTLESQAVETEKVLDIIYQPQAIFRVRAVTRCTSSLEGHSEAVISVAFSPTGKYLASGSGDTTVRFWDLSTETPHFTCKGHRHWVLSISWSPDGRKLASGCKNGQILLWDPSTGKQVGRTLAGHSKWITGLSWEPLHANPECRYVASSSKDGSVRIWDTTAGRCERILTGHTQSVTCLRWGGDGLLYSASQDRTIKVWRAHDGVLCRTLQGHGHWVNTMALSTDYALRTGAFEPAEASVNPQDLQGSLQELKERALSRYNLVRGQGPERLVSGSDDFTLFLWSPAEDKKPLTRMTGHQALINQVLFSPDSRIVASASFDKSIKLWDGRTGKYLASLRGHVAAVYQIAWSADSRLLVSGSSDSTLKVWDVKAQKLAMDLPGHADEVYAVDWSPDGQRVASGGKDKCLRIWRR

Results are given in words; binding and its absence hold for the method and conditions named. In cells and extracts the contact can be indirect. Some results given as binding are weak or reduced against the parent protein; the word gives no strength.

Take “Notchless homolog 1 (NLE1) (from UniProt Q9NVX2 1-485)”: the binding result is recorded as “binds”.

For the origin of these results see publication PMC9931185.
